# According to the supplement of paper PMC6411743:
# Protein sequences, listed by entry. Tags and fused reporters are not part of them. Lines headed by an entry give the natural chain unless they say otherwise; changes in a name come on top.
# UniProt Q8WWK9: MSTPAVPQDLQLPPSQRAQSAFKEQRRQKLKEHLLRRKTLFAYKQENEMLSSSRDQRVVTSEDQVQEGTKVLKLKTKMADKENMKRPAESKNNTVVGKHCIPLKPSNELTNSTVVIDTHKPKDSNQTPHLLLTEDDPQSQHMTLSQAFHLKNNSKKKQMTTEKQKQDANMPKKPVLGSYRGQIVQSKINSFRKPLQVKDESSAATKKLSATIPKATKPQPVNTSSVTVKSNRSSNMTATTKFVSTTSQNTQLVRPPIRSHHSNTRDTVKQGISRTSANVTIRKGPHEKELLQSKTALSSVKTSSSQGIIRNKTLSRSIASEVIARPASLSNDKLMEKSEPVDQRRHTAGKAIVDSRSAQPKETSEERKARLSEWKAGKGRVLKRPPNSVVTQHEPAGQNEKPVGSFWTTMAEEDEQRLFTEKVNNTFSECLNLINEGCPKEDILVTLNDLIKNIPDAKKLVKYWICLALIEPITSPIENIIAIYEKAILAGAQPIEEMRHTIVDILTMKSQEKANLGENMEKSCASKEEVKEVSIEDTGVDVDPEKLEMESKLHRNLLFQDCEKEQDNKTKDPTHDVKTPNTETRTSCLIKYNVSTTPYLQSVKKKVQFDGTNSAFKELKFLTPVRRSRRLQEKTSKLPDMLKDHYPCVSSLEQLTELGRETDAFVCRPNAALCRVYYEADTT
# UniProt Q8TBX8: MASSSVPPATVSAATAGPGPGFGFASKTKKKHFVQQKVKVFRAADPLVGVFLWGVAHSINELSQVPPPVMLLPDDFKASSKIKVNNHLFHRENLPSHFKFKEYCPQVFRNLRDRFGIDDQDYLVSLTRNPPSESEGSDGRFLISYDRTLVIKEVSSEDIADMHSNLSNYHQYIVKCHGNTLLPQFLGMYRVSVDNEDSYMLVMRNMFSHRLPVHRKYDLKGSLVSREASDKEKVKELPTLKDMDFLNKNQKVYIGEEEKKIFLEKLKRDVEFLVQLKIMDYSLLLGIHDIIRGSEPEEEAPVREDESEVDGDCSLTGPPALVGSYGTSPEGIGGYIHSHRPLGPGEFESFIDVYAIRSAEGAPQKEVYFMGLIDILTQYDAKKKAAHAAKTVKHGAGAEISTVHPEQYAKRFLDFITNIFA
# UniProt Q92567: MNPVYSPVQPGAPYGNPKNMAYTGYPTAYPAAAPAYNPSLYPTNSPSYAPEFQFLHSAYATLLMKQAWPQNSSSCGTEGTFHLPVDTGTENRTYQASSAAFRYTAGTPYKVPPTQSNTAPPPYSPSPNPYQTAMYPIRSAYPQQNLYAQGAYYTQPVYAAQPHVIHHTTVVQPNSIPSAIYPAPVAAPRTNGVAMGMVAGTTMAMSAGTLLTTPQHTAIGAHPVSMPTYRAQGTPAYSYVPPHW
# UniProt Q8TEQ0: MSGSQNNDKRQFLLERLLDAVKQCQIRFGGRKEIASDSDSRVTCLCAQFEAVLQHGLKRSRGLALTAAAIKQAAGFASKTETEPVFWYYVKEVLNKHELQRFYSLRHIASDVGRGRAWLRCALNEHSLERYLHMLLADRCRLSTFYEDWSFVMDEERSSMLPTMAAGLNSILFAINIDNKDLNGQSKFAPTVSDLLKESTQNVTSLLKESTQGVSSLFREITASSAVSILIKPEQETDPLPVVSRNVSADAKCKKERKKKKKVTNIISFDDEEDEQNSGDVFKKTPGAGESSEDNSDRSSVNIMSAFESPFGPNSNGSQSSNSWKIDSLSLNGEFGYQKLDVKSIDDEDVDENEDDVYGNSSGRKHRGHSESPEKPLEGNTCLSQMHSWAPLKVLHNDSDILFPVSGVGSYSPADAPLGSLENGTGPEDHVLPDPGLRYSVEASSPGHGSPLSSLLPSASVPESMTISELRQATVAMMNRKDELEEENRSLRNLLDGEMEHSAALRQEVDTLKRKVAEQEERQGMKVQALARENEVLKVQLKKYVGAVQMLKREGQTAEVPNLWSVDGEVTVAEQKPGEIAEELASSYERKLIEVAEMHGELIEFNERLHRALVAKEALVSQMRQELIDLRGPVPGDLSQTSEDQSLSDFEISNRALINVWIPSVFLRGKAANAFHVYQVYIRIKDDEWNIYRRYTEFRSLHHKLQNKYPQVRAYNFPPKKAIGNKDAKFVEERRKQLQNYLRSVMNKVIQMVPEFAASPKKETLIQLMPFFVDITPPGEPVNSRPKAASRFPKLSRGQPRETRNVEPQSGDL
# UniProt Q92608: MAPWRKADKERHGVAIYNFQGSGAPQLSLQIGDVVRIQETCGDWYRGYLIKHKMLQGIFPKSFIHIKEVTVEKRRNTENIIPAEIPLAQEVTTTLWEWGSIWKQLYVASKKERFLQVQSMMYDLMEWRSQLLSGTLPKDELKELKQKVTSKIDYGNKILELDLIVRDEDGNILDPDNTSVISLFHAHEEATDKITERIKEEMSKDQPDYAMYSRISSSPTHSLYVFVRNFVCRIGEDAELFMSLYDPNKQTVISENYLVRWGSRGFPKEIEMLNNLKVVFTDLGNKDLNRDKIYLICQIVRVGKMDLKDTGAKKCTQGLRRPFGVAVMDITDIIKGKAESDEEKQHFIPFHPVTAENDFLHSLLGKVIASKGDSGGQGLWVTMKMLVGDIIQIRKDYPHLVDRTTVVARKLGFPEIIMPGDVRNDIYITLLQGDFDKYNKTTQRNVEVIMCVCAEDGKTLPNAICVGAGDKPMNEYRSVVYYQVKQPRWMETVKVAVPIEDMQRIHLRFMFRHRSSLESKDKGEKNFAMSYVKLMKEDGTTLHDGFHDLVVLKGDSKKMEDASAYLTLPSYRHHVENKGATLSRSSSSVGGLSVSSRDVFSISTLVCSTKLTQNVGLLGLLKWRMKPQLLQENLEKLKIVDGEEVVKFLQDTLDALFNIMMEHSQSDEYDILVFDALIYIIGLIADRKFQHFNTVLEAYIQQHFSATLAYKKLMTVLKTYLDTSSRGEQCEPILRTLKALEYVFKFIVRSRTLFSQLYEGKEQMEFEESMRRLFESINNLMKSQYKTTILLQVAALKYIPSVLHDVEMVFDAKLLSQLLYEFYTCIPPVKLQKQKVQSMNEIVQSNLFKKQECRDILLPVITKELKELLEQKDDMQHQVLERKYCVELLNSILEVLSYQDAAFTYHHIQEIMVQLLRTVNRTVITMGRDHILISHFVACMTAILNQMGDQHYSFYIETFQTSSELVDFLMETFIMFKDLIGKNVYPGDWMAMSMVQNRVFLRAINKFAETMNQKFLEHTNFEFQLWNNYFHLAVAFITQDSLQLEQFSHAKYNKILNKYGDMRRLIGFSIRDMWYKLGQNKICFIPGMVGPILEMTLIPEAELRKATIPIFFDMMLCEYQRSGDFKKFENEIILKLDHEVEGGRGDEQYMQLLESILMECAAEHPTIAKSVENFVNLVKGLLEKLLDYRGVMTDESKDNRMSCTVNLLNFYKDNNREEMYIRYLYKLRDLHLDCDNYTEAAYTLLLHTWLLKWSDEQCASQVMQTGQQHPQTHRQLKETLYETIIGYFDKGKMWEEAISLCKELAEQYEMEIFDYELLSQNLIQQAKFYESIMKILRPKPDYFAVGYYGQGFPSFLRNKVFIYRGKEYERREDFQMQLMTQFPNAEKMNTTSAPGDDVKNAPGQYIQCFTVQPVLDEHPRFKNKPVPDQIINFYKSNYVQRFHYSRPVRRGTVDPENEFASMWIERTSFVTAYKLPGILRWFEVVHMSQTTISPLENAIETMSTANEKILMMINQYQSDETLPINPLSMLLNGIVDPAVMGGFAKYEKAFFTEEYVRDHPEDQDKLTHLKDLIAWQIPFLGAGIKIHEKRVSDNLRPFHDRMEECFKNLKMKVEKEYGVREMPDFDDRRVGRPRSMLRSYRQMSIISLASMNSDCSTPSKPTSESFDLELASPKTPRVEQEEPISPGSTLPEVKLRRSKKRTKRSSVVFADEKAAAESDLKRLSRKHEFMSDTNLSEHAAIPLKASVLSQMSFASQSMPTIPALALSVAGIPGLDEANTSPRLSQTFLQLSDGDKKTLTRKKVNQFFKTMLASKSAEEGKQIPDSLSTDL
# UniProt Q969G6: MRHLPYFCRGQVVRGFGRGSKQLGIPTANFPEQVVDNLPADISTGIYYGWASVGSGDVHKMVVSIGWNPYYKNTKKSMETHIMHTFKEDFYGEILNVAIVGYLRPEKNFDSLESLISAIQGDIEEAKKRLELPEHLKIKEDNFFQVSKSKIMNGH
# UniProt Q969H8: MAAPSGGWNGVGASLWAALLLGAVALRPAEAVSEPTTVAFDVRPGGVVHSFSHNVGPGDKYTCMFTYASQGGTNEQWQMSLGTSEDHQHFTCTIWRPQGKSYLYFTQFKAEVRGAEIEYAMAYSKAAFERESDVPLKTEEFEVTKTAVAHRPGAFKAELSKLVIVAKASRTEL
# UniProt Q92990: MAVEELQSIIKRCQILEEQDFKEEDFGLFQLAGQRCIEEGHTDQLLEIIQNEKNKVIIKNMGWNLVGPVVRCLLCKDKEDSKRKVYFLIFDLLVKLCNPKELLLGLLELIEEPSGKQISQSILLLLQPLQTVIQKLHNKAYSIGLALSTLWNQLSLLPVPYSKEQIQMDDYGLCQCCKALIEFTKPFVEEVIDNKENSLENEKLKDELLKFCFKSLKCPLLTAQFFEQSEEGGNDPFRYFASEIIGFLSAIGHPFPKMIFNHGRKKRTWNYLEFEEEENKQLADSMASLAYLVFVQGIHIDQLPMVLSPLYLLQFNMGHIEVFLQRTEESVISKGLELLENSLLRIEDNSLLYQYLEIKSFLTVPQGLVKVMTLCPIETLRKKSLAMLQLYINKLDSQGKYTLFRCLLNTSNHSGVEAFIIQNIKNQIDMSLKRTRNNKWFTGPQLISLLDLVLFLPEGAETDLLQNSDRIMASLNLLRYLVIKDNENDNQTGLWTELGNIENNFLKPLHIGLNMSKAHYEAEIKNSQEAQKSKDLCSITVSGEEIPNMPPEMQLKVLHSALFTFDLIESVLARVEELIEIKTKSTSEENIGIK
# UniProt Q96A37: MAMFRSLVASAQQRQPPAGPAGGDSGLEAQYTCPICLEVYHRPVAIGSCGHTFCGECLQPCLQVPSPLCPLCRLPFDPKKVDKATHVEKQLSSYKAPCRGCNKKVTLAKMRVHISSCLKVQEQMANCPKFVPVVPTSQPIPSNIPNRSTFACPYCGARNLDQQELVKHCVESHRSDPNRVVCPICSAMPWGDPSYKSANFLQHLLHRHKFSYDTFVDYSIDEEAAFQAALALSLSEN
# UniProt Q92522: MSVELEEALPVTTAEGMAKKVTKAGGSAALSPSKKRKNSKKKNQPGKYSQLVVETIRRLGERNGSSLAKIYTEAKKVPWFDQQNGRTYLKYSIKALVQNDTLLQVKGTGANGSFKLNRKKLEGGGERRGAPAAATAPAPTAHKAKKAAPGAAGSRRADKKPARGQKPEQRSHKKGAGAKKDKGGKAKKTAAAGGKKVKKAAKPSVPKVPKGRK
# UniProt Q92585: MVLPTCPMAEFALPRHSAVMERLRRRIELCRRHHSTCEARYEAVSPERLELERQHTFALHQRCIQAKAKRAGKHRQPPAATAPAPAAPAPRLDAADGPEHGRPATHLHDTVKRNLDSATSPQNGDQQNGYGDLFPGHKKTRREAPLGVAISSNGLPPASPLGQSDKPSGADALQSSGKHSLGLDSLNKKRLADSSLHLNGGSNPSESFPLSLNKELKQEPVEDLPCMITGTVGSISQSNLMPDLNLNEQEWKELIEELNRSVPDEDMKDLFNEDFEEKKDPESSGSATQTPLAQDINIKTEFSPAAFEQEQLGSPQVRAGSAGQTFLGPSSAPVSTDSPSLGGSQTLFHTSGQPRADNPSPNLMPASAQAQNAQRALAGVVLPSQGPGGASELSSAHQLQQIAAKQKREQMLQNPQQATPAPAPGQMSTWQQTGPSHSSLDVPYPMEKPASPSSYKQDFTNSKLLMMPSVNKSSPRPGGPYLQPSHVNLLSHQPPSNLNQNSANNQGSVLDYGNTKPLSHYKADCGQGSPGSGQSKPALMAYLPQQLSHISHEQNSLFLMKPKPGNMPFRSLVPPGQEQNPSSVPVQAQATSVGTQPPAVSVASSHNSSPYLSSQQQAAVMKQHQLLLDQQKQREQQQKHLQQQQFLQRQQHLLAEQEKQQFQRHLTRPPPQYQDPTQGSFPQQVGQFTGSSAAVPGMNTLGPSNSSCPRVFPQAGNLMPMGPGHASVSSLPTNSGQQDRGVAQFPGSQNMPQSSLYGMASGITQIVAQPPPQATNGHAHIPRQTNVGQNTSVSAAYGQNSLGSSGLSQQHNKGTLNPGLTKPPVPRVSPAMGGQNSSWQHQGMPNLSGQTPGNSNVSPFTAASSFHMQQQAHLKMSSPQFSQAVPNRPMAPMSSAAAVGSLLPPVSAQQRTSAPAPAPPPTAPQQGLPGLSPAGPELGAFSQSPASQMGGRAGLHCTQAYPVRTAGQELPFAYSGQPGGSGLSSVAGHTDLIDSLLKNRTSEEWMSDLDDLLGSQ
# UniProt Q92930: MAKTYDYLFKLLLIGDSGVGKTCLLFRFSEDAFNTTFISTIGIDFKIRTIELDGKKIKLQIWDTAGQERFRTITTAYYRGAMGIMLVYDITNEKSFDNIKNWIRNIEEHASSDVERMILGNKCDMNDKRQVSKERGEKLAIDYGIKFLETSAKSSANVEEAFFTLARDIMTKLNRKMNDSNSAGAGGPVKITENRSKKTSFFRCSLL
# ± gives the standard deviation of the averaged measurements. This is a selection; strong and weak results do not stand in their true shares. Most values lie at the level of the controls, where differences are scatter.
# Compound: Nc1ncnc2c1ncn2[C@@H]1O[C@H](COP(=O)(O)OP(=O)(O)OP(=O)(O)O)[C@@H](O)[C@H]1O [adenosine triphosphate]
# Assay: NP40-soluble protein abundance relative to vehicle (solubility fold change) (ratio); higher = more soluble protein in presence of ATP
# Procedure, shortened: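 Jurkat crude lysate prepared with a Dounce homogeniser was treated at eight concentrations spanning 0.1 to 10 mM, 10 min at room temperature then 3 min at 37 °C. Solubilisation with 0.8% NP40 and benzonase and ultracentrifugation preceded TMT labelling of the supernatant for LC-MS/MS. Fold change against the detergent-processed vehicle was determined per replicate from vsn-normalised intensities, across three independent experiments.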
Target,NP40-soluble protein abundance (concentration: 0.1mM),NP40-soluble protein abundance (concentration: 0.5mM)
UniProt Q8TDQ7 and related entries,1.04 ± 0.078,0.987 ± 0.025
UniProt Q8TDN6,1 ± 0.06,0.988 ± 0.022
UniProt Q8WWK9 and related entries,0.947 ± 0.022,0.964 ± 0.022
ERGIC1 (UniProt Q969X5),1.04 ± 0.073,1.08 ± 0.07
PMM1 (UniProt Q92871),0.983 ± 0.048,1.01 ± 0.06
GPT2 (UniProt Q8TD30),0.925 ± 0.062,1 ± 0.11
UniProt Q8TBX8 and related entries,1.05 ± 0.067,1.04 ± 0.069
UniProt Q92567 and related entries,0.892 ± 0.062,0.842 ± 0.13
LRRC59 (UniProt Q96AG4),0.9497 ± 0.009,0.963 ± 0.024
RAB2B (UniProt Q8WUD1),1.01 ± 0.037,1.04 ± 0.11
UniProt Q8WY54 and related entries,0.981 ± 0.082,0.947 ± 0.076
UniProt Q8TEQ0 and related entries,1.03 ± 0.026,1.05 ± 0.033
UniProt Q8WUW1 and related entries,0.888 ± 0.17,0.953 ± 0.21
UBASH3B (UniProt Q8TF42),1.03 ± 0.06,1.04 ± 0.051
DOCK2 (UniProt Q92608),1.05 ± 0.07,1.16 ± 0.068
UniProt Q92530 and related entries,0.978 ± 0.086,0.916 ± 0.068
UniProt Q8WYL5,1.11 ± 0.18,0.964 ± 0.14
UniProt Q92619,1 ± 0.031,1.09 ± 0.029
SECISBP2L (UniProt Q93073),0.945 ± 0.13,0.922 ± 0.13
UniProt Q92622 and related entries,0.953 ± 0.091,0.933 ± 0.072
UniProt Q96AQ8,0.956 ± 0.018,0.949 ± 0.082
UniProt Q8TEW0 and related entries,1.01 ± 0.024,0.942 ± 0.077
RFK (UniProt Q969G6),1.04 ± 0.053,1.09 ± 0.099
L3MBTL2 (UniProt Q969R5),1.03 ± 0.04,1.02 ± 0.068
AKAP1 (UniProt Q92667),0.996 ± 0.03,1.01 ± 0.029

Target,NP40-soluble protein abundance (concentration: 0.1mM),NP40-soluble protein abundance (concentration: 0.5mM)
EXOC4 (UniProt Q96A65),1.01 ± 0.03,1.03 ± 0.054
ZNF516 (UniProt Q92618),0.999 ± 0.17,1 ± 0.17
UniProt Q8WWC4,1.05 ± 0.091,1.07 ± 0.055
KIAA1143 (UniProt Q96AT1),0.919 ± 0.11,0.883 ± 0.048
UniProt Q969H8,1.04 ± 0.14,1.06 ± 0.068
GLMN (UniProt Q92990),1.08 ± 0.083,1.01 ± 0.072
UniProt Q8TE04 and related entries,1.09 ± 0.053,1.12 ± 0.058
RNF166 (UniProt Q96A37),0.9 ± 0.09,0.97 ± 0.082
RAB24 (UniProt Q969Q5),1.07 ± 0.071,1.07 ± 0.062
UniProt Q8TCF1 and related entries,0.953 ± 0.069,0.943 ± 0.037
CCDC102A (UniProt Q96A19),0.987 ± 0.16,0.949 ± 0.086
H1FX (UniProt Q92522),0.897 ± 0.077,0.895 ± 0.087
GTF3C2 (UniProt Q8WUA4),0.984 ± 0.043,1.01 ± 0.069
MAML1 (UniProt Q92585),0.961 ± 0.11,0.904 ± 0.088
GCDH (UniProt Q92947),1.008 ± 0.0099,0.979 ± 0.01
ITFG2 (UniProt Q969R8),1.02 ± 0.043,0.952 ± 0.055
UniProt Q96AG3 and related entries,1.06 ± 0.15,0.942 ± 0.04
GPKOW (UniProt Q92917),1.04 ± 0.031,1.07 ± 0.016
RAB8B (UniProt Q92930),1.01 ± 0.073,1.06 ± 0.085
ALG3 (UniProt Q92685),1.21 ± 0.22,1.02 ± 0.075
UniProt Q8TE82,1.089 ± 0.0065,1.02 ± 0.038
UniProt Q969H6 and related entries,1 ± 0.062,0.953 ± 0.032
ZCRB1 (UniProt Q8TBF4),1.06 ± 0.084,0.979 ± 0.13
OSTF1 (UniProt Q92882),1 ± 0.011,0.974 ± 0.026
